Source: article doi:10.1101/2020.03.14.989954

Biological target: T1, FLAG-HA(FH)-LZTR1 (UniProt Q8N653)
T1 sequence: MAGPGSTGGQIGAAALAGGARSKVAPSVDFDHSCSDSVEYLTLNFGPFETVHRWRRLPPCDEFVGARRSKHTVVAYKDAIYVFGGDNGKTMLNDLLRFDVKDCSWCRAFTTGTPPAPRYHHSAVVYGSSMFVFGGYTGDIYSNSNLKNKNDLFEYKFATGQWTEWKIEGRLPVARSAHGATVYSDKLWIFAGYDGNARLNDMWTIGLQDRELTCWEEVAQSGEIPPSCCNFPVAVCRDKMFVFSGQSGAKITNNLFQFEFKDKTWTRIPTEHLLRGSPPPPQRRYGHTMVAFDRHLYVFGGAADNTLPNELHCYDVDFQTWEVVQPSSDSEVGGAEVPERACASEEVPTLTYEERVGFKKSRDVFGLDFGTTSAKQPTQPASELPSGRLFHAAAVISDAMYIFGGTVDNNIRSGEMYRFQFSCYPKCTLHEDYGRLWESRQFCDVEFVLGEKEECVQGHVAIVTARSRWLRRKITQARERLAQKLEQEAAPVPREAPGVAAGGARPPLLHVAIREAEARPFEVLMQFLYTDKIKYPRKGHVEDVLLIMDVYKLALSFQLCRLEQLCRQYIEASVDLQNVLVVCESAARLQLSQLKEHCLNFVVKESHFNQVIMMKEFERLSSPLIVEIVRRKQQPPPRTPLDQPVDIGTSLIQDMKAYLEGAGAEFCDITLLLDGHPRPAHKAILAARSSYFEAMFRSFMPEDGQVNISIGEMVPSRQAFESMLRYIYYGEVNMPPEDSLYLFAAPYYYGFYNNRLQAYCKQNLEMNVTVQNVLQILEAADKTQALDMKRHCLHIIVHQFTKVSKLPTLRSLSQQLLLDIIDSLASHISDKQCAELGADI
Experiment: affinity purification with mass spectrometry

endogenous RIT1 (293T) (from UniProt Q92963 1-219)
binding: binds

No constants are given. Whether binding was seen depends on the method and setting. Binding seen in cells or lysates may run through a third protein. Here binding means that the protein was enriched with, or labelled near, the bait; the list need not be complete. Where a sequence is shown, tags or fusion partners need not be part of it.
